Experimental data as given in patent EP1780277A1.
These are yes or no findings as the source states them, for the method shown. For some of these results: Binding seen in cells or lysates may run through a third protein. Some results given as binding are weak or reduced against the parent protein; the word gives no strength. For some of these results: Tags and fused reporters may be left off the sequences shown.

Chains of the proteins cited; added tags and fusions are not shown. Lines headed by an entry give the natural chain unless they say otherwise; changes in a name come on top.
UniProt Q99873: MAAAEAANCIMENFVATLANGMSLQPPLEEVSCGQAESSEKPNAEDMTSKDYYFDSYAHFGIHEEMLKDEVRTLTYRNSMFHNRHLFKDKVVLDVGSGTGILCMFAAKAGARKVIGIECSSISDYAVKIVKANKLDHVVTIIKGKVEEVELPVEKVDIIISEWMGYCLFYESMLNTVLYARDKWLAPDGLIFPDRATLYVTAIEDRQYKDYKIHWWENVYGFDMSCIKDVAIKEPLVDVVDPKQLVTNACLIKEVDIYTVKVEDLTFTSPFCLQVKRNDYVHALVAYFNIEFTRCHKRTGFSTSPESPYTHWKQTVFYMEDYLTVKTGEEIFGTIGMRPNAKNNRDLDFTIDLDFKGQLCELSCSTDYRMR

What was measured:
[1] = molecular target: T1, IFNAR1-IC domain fused to the Gal4 DNA-binding domain (pGBT10-IFNAR1-IC) (human) (UniProt P04386+P17181); test: yeast two-hybrid
[2] = molecular target: T1, IFNAR1-IC domain fused to the Gal4 DNA-binding domain (pGBT10-IFNAR1-IC) (human); test: yeast two-hybrid in SFY526
[3] = molecular target: T1, IFNAR1-IC domain fused to the Gal4 DNA-binding domain (pGBT10-IFNAR1-IC) (human); test: yeast two-hybrid in SFY526, X-gal staining positive in streak 3
[4] = molecular target: T2, GST-IFNAR1-IC fusion protein (human) (UniProt P17181); test: GST pull-down in vitro
T2 sequence (looked up): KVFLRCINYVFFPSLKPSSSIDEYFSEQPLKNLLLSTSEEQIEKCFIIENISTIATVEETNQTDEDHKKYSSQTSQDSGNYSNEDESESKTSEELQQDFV

[5] = molecular target: T2, GST-IFNAR1-IC fusion protein (human); test: GST pull-down of 35S-labeled in vitro translated flag-IR1B4, SDS-PAGE
[6] = molecular target: intact IFNAR1 from human cells (human) (UniProt P17181); test: co-immunoprecipitation with anti-IFNAR1 mAb R3 on protein G beads, SDS-PAGE
[7] = molecular target: intact IFNAR1 from human cells (human) (UniProt P17181); test: co-immunoprecipitation: 35S-labeled flag-IR1B4 mixed with U266S detergent extracts and precipitated with mAb IFNaR3 or Ab 631; IFNAR1 precipitated by anti-flag from Cos-7 cells given both cDNAs

Measured: binding

IR1B4 fused to the Gal4 activation domain (pACT clone IR1B4) (from UniProt Q99873 11-371)
binds: [1] | [2] | [3]

flag-IR1B4 fusion protein, [35S]methionine-labeled in vitro translation product (from UniProt Q99873 11-371)
binds: [4] | [5] | [6] | [7]
